# Experimental data published in article PMC5996148.
# Several values for one entry are separate records, joined by “and”; a condition that tells them apart may be missing. Identical values can stand only once. This is one part of the list.
# Key:
# Experiment in all cases: protein microarray (ProtoArray v5.0), streptavidin-Alexa Fluor 647
# Details in all cases: 3'-biotin; 20 mM Tris (pH 7.5), 5 mM MgCl2, 100 mM KCl, 0.1% Tween-20, A/T-rich and random oligonucleotide blockers; temperature not stated; high values mean tight binding
# KIAA0513 (human) = system: KIAA0513 (human)
# KIAA0562 (human) = system: KIAA0562 (human)
# KIAA0652 (human) = system: KIAA0652 (human)
# KIAA1576 (human) = system: KIAA1576 (human)
# KIAA1598 (human) = system: KIAA1598 (human)
# KIAA1609 (human) = system: KIAA1609 (human)
# KIAA1754 (human) = system: KIAA1754 (human)
# KIF6 (human) = system: KIF6 (human)
# KIFC3 (human) = system: KIFC3 (human)
# KIR2DL3 (human) = system: KIR2DL3 (human)
sequence,measurement,setting,value
GGGAGGCTGAGGCAGG [G4-1 biotinylated (PQS2)],binding signal,KIAA0513 (human),-0.338 z-score
same,binding signal,KIAA0562 (human),-0.333 z-score
same,binding signal,KIAA0652 (human),-0.315 z-score and -0.289 z-score
same,binding signal,KIAA1576 (human),-0.349 z-score
same,binding signal,KIAA1598 (human),-0.351 z-score
same,binding signal,KIAA1609 (human),-0.335 z-score
same,binding signal,KIAA1754 (human),-0.333 z-score
same,binding signal,KIF6 (human),-0.306 z-score
same,binding signal,KIFC3 (human),-0.314 z-score
same,binding signal,KIR2DL3 (human),-0.342 z-score
